Assay results from PubChem BioAssay AID624297 (National Center for Advancing Translational Sciences (NCATS), 2012).
Hit rate of the full screen: of about 340,000 compounds, about 6,200 (1.8%) were called active. Inconclusive results, whose numbers are uncertain, are shown with a selection of clear calls. The call rests on the fitted dose curve; in most records, active means well fitted activation curve with a large enough effect; inconclusive means small, poorly fitted or top-dose-only effect; inactive means no such curve, though single readings can be large or run the other way. Where the call is inconclusive, the potency comes from a doubtful curve fit.

Test: A quantitative high throughput screen for small molecules that induce DNA re-replication in SW480 colon adenocarcinoma cells. Further: nearly all actives have a fitted effect of over 55% in size. On re-replication activation: % of control where 0% means no effect.
Conditions: Hoechst DNA content imaging, 48 h; re-replication activation: at 46.1 µM (top of the series) unless noted
Outline: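 Per well, 250 cells were exposed to pinned compound for 48 hr. Nuclear DNA was visualised with Hoechst (40 min, 37 C) and total object intensity recorded by fluorescence scanning.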
Potency means the concentration at half of the fitted maximal effect.

| Compound | Potency | re-replication activation |
| --- | --- | --- |
| COc1cc(/C=C2/C(=O)ON=C2c2ccccc2)ccc1O | inconclusive: 18.4 µM [activator, partial curve, poor fit] | – |
| O=C(Nc1ccc(F)c(F)c1)c1ccc(F)c(S(=O)(=O)N2CCC3(CC2)OCCO3)c1 | inconclusive: 0.291 µM [activator, full curve, poor fit] | – |
| CCN(Cc1ccccc1)S(=O)(=O)c1ccc(OC)cc1 | – | inactive: -11.1% |
| C[C@H](CO)N1C[C@H](C)[C@@H](CN(C)Cc2ccc(Cl)c(Cl)c2)Oc2c(NC(=O)C3CCOCC3)cccc2C1=O | inconclusive: 4.61 µM [activator, full curve] | – |
| COc1ccc(N(C)C(=O)c2cc3c(s2)-c2ccc(Cl)cc2S(=O)(=O)C3)c(OC)c1 | inconclusive: 32.6 µM [activator, partial curve, poor fit] | – |
| Cc1cccc(N=c2oc3cc(O)ccc3cc2C(N)=O)c1 | inconclusive: 23.1 µM [activator, single point] | – |
| COC(=O)CNC(=O)CSc1nc2sc(-c3ccccc3)cc2c(=O)n1-c1ccccc1 | – | inactive: -5.6% |
| CC(C)(C)c1cc(NCCCn2ccnc2)n2ncc(-c3ccc(Cl)cc3)c2n1 | inconclusive: 29.1 µM [activator, single point] | – |
| CC(C)Cc1nc2sc3c(c2c(=O)n1N)CC(C(C)C)OC3 (centres undefined) | inconclusive: 2.59 µM [activator, partial curve, poor fit] | – |
| O=C(Nc1nc2ccccc2n1Cc1ccccc1)c1ccc(COc2ccccc2[N+](=O)[O-])o1 | inconclusive: 18.4 µM [activator, partial curve, poor fit] | – |
| O=C(Nc1ccc(F)cc1F)c1cc(-c2ccc3c(c2)OCO3)on1 | – | inactive: -5.12% |
| COc1ccc(Cl)cc1C(=O)Nn1c(-c2cccs2)nc2ccccc2c1=O | inconclusive: 23.1 µM [activator, single point] | – |
| COc1ccc(/C=N/NS(=O)(=O)c2ccccc2)cc1OC | – | inactive: 8.71% |
| CNC(=O)c1cc(S(=O)(=O)N2CC(C)OC(C)C2)ccc1N1CCCCC1 (centres undefined) | inconclusive: 29.1 µM [activator, single point] | – |
| CCCCCOc1ccc(NC(=O)CSc2cccc3cccnc23)cc1 | inconclusive: 29.1 µM [activator, single point] | – |
| O=C(Nc1cc(Sc2ccccn2)cc([N+](=O)[O-])c1)c1cccc(Cl)c1 | – | inactive: -1.89% |
| CC1=Nc2cc(C(=O)NCc3ccco3)ccc2Sc2ccc(C)cc21 | active: 1.3 µM | – |
| CCN(Cc1ccccc1)C(=O)Cn1c(=O)n(CCC(=O)N2CCCCC2)c(=O)c2sccc21 | inconclusive: 1.3 µM [activator, full curve, poor fit] | – |
| COCCCn1c(=O)/c(=C\c2ccccc2OC(F)F)s/c1=C(/C#N)C(N)=O | inconclusive: 3.66 µM [activator, single point] | – |
| Cc1nccn1CC(=O)N/N=C/c1ccccc1O | inconclusive: 2.31 µM [activator, single point] | – |
| COc1cc(/C=C2\CC/C(=C\c3cc(OC)c(OC)c(OC)c3)C2=O)cc(OC)c1OC | inconclusive: 4.61 µM [activator, partial curve, poor fit] | – |
| Cc1c(OCC(=O)NC2CC(C)(C)NC(C)(C)C2)ccc2c3c(c(=O)oc12)CCC3 | inconclusive: 32.6 µM [activator, single point] | – |
| O=C(COc1ccc(-c2nnco2)cc1)NC1CCS(=O)(=O)C1 (centres undefined) | inconclusive: 23.1 µM [activator, single point] | – |

Among those listed so far, 2 have a nitro group on carbon.

| Compound | Potency | re-replication activation |
| --- | --- | --- |
| O=C(Nc1nc2ccccc2n1Cc1ccccc1)c1ccc(COc2ccccc2[N+](=O)[O-])o1 | inconclusive: 18.4 µM [activator, partial curve, poor fit] | – |
| O=C(Nc1cc(Sc2ccccn2)cc([N+](=O)[O-])c1)c1cccc(Cl)c1 | – | inactive: -1.89% |

3 consecutive records from above:

| Compound | Potency | re-replication activation |
| --- | --- | --- |
| CCN(Cc1ccccc1)C(=O)Cn1c(=O)n(CCC(=O)N2CCCCC2)c(=O)c2sccc21 | inconclusive: 1.3 µM [activator, full curve, poor fit] | – |
| COCCCn1c(=O)/c(=C\c2ccccc2OC(F)F)s/c1=C(/C#N)C(N)=O | inconclusive: 3.66 µM [activator, single point] | – |
| Cc1nccn1CC(=O)N/N=C/c1ccccc1O | inconclusive: 2.31 µM [activator, single point] | – |

Next entries follow.

| Compound | Potency | re-replication activation |
| --- | --- | --- |
| CC1(C)CNC(=O)c2sc(N3CCOCC3)nc2C1 | inconclusive: 29.1 µM [activator, single point] | – |
| CC(C)(C)C(=O)NC(Nc1cccc2cccnc12)C(Cl)(Cl)Cl (centres undefined) | active: 23.1 µM | – |
| O=C(CSc1nc(C2CC2)nc2ccccc12)Nc1ccccc1N1CCOCC1 | inconclusive: 29.1 µM [activator, single point] | – |
| C1=Nc2c(NCc3ccccc3)ncnc2Oc2ccccc21 | – | inactive: -0.18% [at 9.22 µM] |
| O=C(CCCSc1nc2ccccc2[nH]1)Nc1ccccc1 | – | inactive: -4.62% |
| CC(C)CN(CC(C)C)c1nc(N)c(C#N)c(CC#N)c1C#N | – | inactive: 16.6% |
| C#CCN(Cc1ccccc1)S(=O)(=O)C=C | inconclusive: 23.1 µM [activator, single point] | – |
| N#C/C(=C\c1ccc(Cl)cc1)c1nc2ncccc2[nH]1 | inconclusive: 29.1 µM [activator, single point] | – |
| Cc1ccc(NC(=O)C(=O)NCCN2CCN(Cc3ccc([N+](=O)[O-])cc3)CC2)cc1 | inconclusive: 2.06 µM [activator, single point] | – |
| Cc1ccc(CN2CC(C(=O)N3CCN(S(=O)(=O)c4ccc(C)cc4C)CC3)CC2=O)cc1 (centres undefined) | – | inactive: 0.581% |
| Cc1ccc(S(=O)(=O)N2CCOCC2)cc1NC(=O)COC(=O)CNC(=O)c1ccccc1 | inconclusive: 29.1 µM [activator, single point] | – |
| O=C1c2cccc3cccc(c23)N1Cc1cccc(F)c1 | inconclusive: 20.6 µM [activator, partial curve, poor fit] | – |
| Fc1cccc(CSc2ncnc3c2ncn3C2CCCCO2)c1 (centres undefined) | inconclusive: 0.0731 µM [activator, full curve, poor fit] | – |
| O=C(CNc1ccc2ccccc2c1)NNC1=NCCC1 | – | inactive: -4.62% |
| Cc1cc(C)cc(NC(=S)N=Nc2c(O)n(C)c3ccc(S(=O)(=O)N4CCOCC4)cc23)c1 | inconclusive: 6.51 µM [activator, single point] | – |
| CC(C)(C)OC(=O)N1CCC(c2cc(-c3cccs3)n[nH]2)CC1 | – | inactive: 4.91% |
| CCCc1cc(=O)[nH]c(/N=C(/NC(=O)c2ccccc2)Nc2ccc3c(c2)OCCO3)n1 | inconclusive: 4.61 µM [activator, single point] | – |
| CC(=O)N1CCc2cc(S(=O)(=O)N3c4ccccc4CC3C)ccc21 (centres undefined) | inconclusive: 25.9 µM [activator, single point] | – |
| CC(C)C(=O)NC(c1cccs1)c1cc([N+](=O)[O-])c2cccnc2c1O (centres undefined) | inconclusive: 18.4 µM [activator, single point] | – |
| Cc1cc(C(=O)Nc2cc(C(C)(C)C)on2)c(C)o1 | inconclusive: 0.731 µM [activator, full curve, poor fit] | – |
| Cc1cccc2cc(C#N)c(SCCN3CCCCC3)nc12 | active: 8.2 µM | – |
| Cn1nnnc1SCC(=O)Nc1ccccn1 | – | inactive: -3.6% |
| CCN(CC(=O)Nc1ccccc1OC)C(=O)COc1ccc2ccccc2c1 | – | inactive: -14.3% |

| Compound | Potency | re-replication activation |
| --- | --- | --- |
| Oc1c(Cl)cc(Cl)cc1/C=N/Nc1ncc(Br)cn1 | active: 0.164 µM | – |
| CCOC(=O)C1CCN(C(=O)c2ccc3c(SCC(=O)O)c4c(nc3c2)CCCC4)CC1 | inconclusive: 6.51 µM [activator, single point] | – |
| O=C(Cc1ccccc1)c1ccc(O)cc1O | – | inactive: -5.48% |
| CCOc1cc(/C=C/c2cc(C(F)(F)F)[nH]c(=O)n2)ccc1O | inconclusive: 18.4 µM [activator, single point] | – |
| CCOC(=O)Nc1cc(C(=O)OCC)c(C)nc1C | inconclusive: 5.8 µM [activator, single point] | – |
| Clc1ccc(OCc2nc(-c3ccccn3)n[nH]2)cc1 | inconclusive: 16.4 µM [activator, single point] | – |
| COc1ccccc1N1CCN(C(=O)c2ccc3c(c2)CCN3S(C)(=O)=O)CC1 | – | inactive: -11.6% |
| CCCCN=C1N/C(=C\c2ccco2)C(=O)N1c1ccccc1 | inconclusive: 32.6 µM [activator, partial curve, poor fit] | – |
| CC1(C)Cc2nc3sc4c(=O)n(CC(N)=O)cnc4c3cc2CO1 | – | inactive: -1.59% |
| Fc1ccc(CNC(=S)NC2CCCC2)cc1 | inconclusive: 5.8 µM [activator, partial curve, poor fit] | – |
| O=C(NCCN1CCOCC1)c1ccc2c(c1)N(Cc1ccccc1F)C(=O)CS2 | – | inactive: -0.187% |
| O=C(CNS(=O)(=O)c1ccccc1)NCC(=O)N1CCCCC1 | – | inactive: -10.5% [at 9.22 µM] |
| CCc1noc(C)c1C(=O)N(CC)CC(=O)Nc1cc(Cl)ccc1C | – | inconclusive: 28.2% [activator] |
| COc1ccc(CCN(C)C(=O)c2cc(=O)c3ccccc3o2)cc1OC | – | inactive: 0.657% |
| CCCCCCCCSc1nnc(/N=C/N(C)C)s1 | inconclusive: 4.61 µM [activator, full curve, poor fit] | – |
| O=C(CCl)Nc1ccc(N=Nc2ccccc2)cc1 | active: 23.1 µM | – |
| CC(C)(C)CC(C)(C)NC(=S)Nc1ccc2nc(-c3ccccn3)c(-c3ccccn3)nc2c1 | inconclusive: 29.1 µM [activator, partial curve, poor fit] | – |
| CCN(CC)CCN1C(=O)C(O)=C(C(C)=O)C1c1ccccc1[N+](=O)[O-] (centres undefined) | inconclusive: 25.9 µM [activator, partial curve, poor fit] | – |
| Cc1ccc(C2c3c(-c4ccccc4O)n[nH]c3C(=O)N2Cc2ccncc2)cc1 (centres undefined) | active: 18.4 µM | – |
| CCOc1[nH]n(-c2ccc(Cl)cc2)c(=O)c1C=Nc1ccc(O)cc1 | inconclusive: 23.1 µM [activator, single point] | – |
| Cc1ccc(NC(=O)CN(C)C(=O)c2ccccc2OCc2c(C)noc2C)cc1 | inconclusive: 0.0052 µM [activator, full curve, poor fit] | – |
| O=C(O)c1cccnc1Sc1ncnc2sc3c(c12)CCC3 | inconclusive: 29.1 µM [activator, single point] | – |
| CCC1CSC(Nc2ccc(C(=O)/C=C/c3cccc(C)c3)cc2)=N1 (centres undefined) | inconclusive: 20.6 µM [activator, single point] | – |
